{"source": "PubChem BioAssay AID190", "about": "(DTP/NCI, 2004)", "tested_on": "AKR/Lw mice, AKR lymphoma ip, median survival T/C", "experiment": "NCI In Vivo Anticancer Drug Screen. Data for tumor model Lymphoma AKR (Transplanted) (intraperitoneal) in AKR/Lw mice", "conditions": "T/C endpoint: median survival time; dose: 400.0 mg/kg/injection; schedule: Q01DX001 (ip); vehicle: Klucel (hydroxypropylcellulose) (HPC); higher T/C = longer survival", "description": "The antitumor activity of compounds was measured in mice bearing transplantable tumors. Survival or tumor size were measured and the results are expressed as the measurement made in the treated group (T) divided by the measurement made in the vehicle treated control group (C). The tumor model used in this assay is Lymphoma AKR (Transplanted) (intraperitoneal) in AKR/Lw mice", "note": "The list does not hold the whole screen: it is rich in T/C values a quarter to a half above the control, in often repeated tests (any T/C) and in doses without a T/C. Other doses and runs of a compound stand elsewhere. T/C: endpoint of the treated group in % of that of the vehicle group. Some doses have a count of surviving animals in place of a T/C: the source files T/C as zero there, which appears to mark a toxic dose or a test without result, not a measured value. Counts of survivors are from the toxicity check (mostly the fifth day) where no day follows; animals may have died later. Schedule codes are those of the source, read here as Q, the interval in days (D) or hours (H), X, the number of doses.", "data": [{"molecule": "C=CCN(CC=C)c1ccc(N(CC)CC)cc1", "values": [{"measurement": "survivor count", "result": "5 of 10"}]}]}
